Test results reported in USRE50049E1, “Compositions and methods for treating psoriasis” (SYMBIONYX PHARMACEUTICALS INC, priority 2015, dated 2024).
Some results were stated once for a whole list of compounds, not compound by compound. At least one compound was matched to its structure with a doubt left.

Tested on: TNF α-treated human dermal fibroblasts (HDF)
Experiment: PCR gene expression in TNF α-treated human dermal fibroblasts
Format: cell-based
Settings: IDMF 1 μg/ml, 24 hours, TNF-alpha 10 ng/ml

COC(=O)/C=C/C(=O)OC1COC2C(OC(=O)/C=C/C(=O)OC)COC12 (stereo not shown) [IDMF, isosorbide di-(methylfumarate)]
NRF2 expression, fold difference (increase): > 2 fold
